Assay results taken from patent US20120095193A1.
Substitutions are numbered along the chain they refer to. Results are given in words; binding and its absence hold for the method and conditions named. Some entries that bind do so weakly or less than the wild type.

Sequences of proteins named here, by UniProt entry; tags and fusion partners are left off. A change or cut given only in a name is not applied to a line headed by its entry.
UniProt Q9UNA0: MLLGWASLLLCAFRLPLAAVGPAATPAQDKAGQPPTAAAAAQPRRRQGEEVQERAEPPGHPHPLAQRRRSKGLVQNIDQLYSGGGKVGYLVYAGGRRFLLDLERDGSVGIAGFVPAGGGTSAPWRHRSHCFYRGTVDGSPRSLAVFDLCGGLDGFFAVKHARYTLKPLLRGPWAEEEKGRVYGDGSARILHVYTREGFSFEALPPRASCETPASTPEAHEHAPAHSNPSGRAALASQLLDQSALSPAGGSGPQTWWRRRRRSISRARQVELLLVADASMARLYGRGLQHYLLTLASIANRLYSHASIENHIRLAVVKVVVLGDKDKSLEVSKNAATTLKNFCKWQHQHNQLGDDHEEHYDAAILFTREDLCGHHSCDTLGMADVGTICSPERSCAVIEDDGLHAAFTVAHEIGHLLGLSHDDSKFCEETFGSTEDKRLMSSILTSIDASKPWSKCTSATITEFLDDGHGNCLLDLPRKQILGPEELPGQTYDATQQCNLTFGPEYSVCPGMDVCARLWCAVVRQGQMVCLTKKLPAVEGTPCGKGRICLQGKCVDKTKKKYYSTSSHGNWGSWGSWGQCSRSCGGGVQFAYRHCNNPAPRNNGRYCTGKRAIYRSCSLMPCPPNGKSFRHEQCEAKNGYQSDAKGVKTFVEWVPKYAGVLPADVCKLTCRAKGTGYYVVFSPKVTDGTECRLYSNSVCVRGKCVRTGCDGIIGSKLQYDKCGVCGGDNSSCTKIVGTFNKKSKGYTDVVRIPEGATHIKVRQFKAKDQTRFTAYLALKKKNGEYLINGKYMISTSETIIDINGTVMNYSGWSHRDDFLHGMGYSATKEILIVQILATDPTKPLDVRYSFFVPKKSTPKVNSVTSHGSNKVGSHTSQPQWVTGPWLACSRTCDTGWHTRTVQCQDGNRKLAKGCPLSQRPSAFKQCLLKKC

T1: mouse ADAMTS5 (mouse) (UniProt Q9R001)
T1 sequence (looked up): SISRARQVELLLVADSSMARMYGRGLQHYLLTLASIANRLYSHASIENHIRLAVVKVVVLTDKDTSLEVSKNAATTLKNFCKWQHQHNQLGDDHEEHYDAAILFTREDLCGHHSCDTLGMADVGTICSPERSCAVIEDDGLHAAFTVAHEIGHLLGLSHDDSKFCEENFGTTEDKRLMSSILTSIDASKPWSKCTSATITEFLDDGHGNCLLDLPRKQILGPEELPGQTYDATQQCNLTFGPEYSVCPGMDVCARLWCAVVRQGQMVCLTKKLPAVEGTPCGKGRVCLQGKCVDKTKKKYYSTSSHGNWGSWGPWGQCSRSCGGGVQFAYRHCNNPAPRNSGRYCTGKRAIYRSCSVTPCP

T2: rat ADAMTS5 (rat) (UniProt Q6TY19)
T2 sequence: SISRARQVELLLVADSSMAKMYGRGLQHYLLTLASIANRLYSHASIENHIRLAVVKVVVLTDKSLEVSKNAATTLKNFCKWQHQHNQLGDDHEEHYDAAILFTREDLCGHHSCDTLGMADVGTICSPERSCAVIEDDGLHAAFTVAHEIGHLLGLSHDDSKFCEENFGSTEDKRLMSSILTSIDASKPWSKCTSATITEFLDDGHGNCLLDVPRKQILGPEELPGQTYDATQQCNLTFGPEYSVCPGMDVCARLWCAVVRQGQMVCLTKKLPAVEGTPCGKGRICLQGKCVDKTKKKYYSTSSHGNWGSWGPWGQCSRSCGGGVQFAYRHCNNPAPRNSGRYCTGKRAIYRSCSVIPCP

B1: BPC1623 (antibody, human IgG1, kappa, V domains shown)
VH: EVKLEESGGGLVQPGGSMKLSCTASGFTFSDAWMDWVRQSPEKGLEWVAEIRHKANDHAIFYDESVKGRFTISRDDSKNIVYLQMNSLRPEDTGIYYCTSPFAYWGQGTLVTVSS
VL: DIVMTQSQKFMSVTVGDRVSITCKASQSVGTTIVWYQQKPGQSPKLLIYSASNRHTGVPDRFTGSGSGTDFILTINNVQSEDLADYFCQQYTSYPFTFGSGTKLEIKR
B2: BPC1641 (antibody, human IgG1, kappa, V domains shown)
VH: EVQLVESGGGLVQPGGSLRLSCAASGFTFSDAWMDWVRQAPGKGLEWVAEIRNKANNHARHYAESVKGRFTISRDNAKNSLYLQMNSLRAEDTAVYYCARTYYYGSSYGYCDVWGQGTLVTVSS
VL: DIQMTQSPSSLSASVGDRVTITCRTSENIYSYLAWYQQKPGKAPKLLVYNAKTLAEGVPSRFSGSGSGTDFTLTISSLQPEDFATYYCQHHYGTPWTFGQGTKLEIKR
B3: 5F10.1H6 (antibody, V domains shown)
VH: B1 VH with T23A, N79S, S115A
VL: B1 VL with K9R, N53T, H55Y, S65G, T92S
B4: 3A12.1D7 (antibody, V domains shown)
VH: B1 VH with L4F, T23A, T28I, H58Y, N79S, S87N, S115A
VL: B1 VL with N76S, T92S
B5: 12F4.1H7 (antibody, IgG2, V domains shown)
VH: B1 VH with S115A
VL: B1 VL
B6: 2D3.1D4 (antibody, V domains shown)
VH: EVKLEESGGGLVQPGGSMKLSCAASGITFSDAWMDWVRQSPEKGLEWVADIRNTANNHATFYAESVKGRFTISRDDSKSTVYLQMNTLRPEDTGIYYCTSPFAYWGQGTLVTVSA
VL: DIVMTQSQKFMSTTVGDRVSITCKASQNVGTAVVWFQQKPGQSPKLLIYSASNRYTRVPDRFTGSGSGTDFTLTISNVQSEDLADYFCQQYVNYPFTFGSGTKLEIKR
B7: 7B4.1E11 (antibody, IgG1, V domains shown)
VH: EVKLEESGGGLVQPGGSMKLSCAASGFTSSDAWMDWVRQSPEKGLEWVAEIRNKANNHARHYAESVKGRFTISRDDSKSSVYLQMNSLRAEDSGIYYCTRTYYYGSSYGYCDVWGTGTTVTVSS
VL: DIQMTQSPASLSASVGETVTITCRTSENIYSYLAWYQQKQGKSPQLLVYNAKTLAEGVPSRFSGSGSGTQFSLKINSLQPEDFGSYSCQHHYGTPWTFGGGTKLEIKR
B8: BPC1656 (antibody, human IgG1, kappa, V domains shown)
VH: EVQLLESGGGLVQPGGSLRLSCAASGFTFSDAWMDWVRQAPGKGLEWVSEIRHKANDHAIFYDESVKGRFTISRDNSKNTLYLQMNSLRAEDTAVYYCTSPFAYWGQGTLVTVSS
VL: DIQMTQSPSSLSASVGDRVTITCKASQSVGTTIVWYQQKPGKAPKLLIYSASNRHTGVPSRFSGSGSGTDFTLTISSLQPEDFATYYCQQYTSYPFTFGQGTKLEIKR
B9: BPC1657 (antibody, human IgG1, kappa, V domains shown)
VH: B8 VH with N76D
VL: B8 VL
B10: BPC1658 (antibody, human IgG1, kappa, V domains shown)
VH: B8 VH with S49A, L81V
VL: B8 VL

What follows are binders tested against human ADAMTS5 (human) (UniProt Q9UNA0) (assay: ELISA on coated recombinant human ADAMTS5 (0.2 ug/ml), purified antibody, anti human kappa peroxidase, OD 490 nm).

binding, binds:
B1

What follows are binders tested against human ADAMTS5 (human) (UniProt Q9UNA0) (assay: ELISA on coated recombinant human ADAMTS5 (0.2 ug/ml), antibody in culture supernatant, anti human kappa peroxidase, absorbance 490 nm).

binding, binds:
B2

Each binder was assayed against T1, mouse ADAMTS5 (mouse) (assay: orthologue cross-reactivity, binding/neutralization grade).

binding, binds:
B3
B4
B5
B6
B7

What follows are binders tested against canine ADAMTS5 (canine) in the same assay as above.

binding, binds:
B3
B4
B5
B6
B7

These binders were tested against cynomolgus monkey ADAMTS5 (cynomolgus monkey) in the same assay as above.

binding, binds:
B3
B4
B5
B6
B7

What follows are binders tested against human ADAMTS5 (human) (UniProt Q9UNA0) (assay: ELISA on coated recombinant human ADAMTS5 (0.2 ug/ml), antibody in culture supernatant, anti human kappa peroxidase, OD 490 nm).

binding, binds:
B1
B8
B9
B10

These binders were tested against T2, rat ADAMTS5 (rat) (assay: orthologue cross-reactivity, method not specified, data not shown).

binding, binds:
B3
B4
B5
B6
B7
